These are literature values, as cited in patent US6572880B2, “Methods and transdermal compositions for pain relief” (priority 1996, dated 2003).

The conditions of the data set: oral; Dextroamphetamine as time release spansule; cited from earlier work.

In the case of `C[C@H](N)Cc1ccccc1` [Dextroamphetamine], the duration of action was 5 to 6 h.

In the case of `COC(=O)C(c1ccccc1)C1CCCCN1` (centres unmarked) [Methylphenidate], the duration of action was 2 to 4 h.
